{"source": "PubChem BioAssay AID743121 – NCATS, 2013", "test": "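Genes whose silencing strengthens cell killing by camptothecin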 (primary screen)", "system": "MDA-MB-231 cells, a human breast cancer line", "reagent": "single siRNA against human genes, 20 nM siRNA (0.8 pmol per well)", "duration": "120 h (drug added 48 h after transfection, read 72 h later)", "challenge": "camptothecin 20 nM (about EC30) for 72 h; vehicle 0.1% DMSO in parallel plates", "measurement": "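CellTiter-Glo ATP signal, scaled to control siRNA as percent viability; sensitisation given as log2 of untreated divided by camptothecin-treated viability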", "scale": "log2 vehicle/camptothecin viability: higher = stronger sensitisation to camptothecin; viability with camptothecin: higher = more viable cells", "hit rule": "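Active genes have an RSA gene-level p-value below 0.001, computed from the ratios of their separate siRNAs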", "note": "This is one part, drawn at random, of about 26,000 deposited reagents. 167 of them (0.63%) count as active. 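Calls are per gene from RSA p-values that are not deposited; an individual active-marked siRNA can sensitise only weakly.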 Entries without a mark were called inactive. The numbers tell different reagents against one gene apart. Not all columns of the deposit are shown. Reagent sequences are not shown."}
{"gene": "KCNJ14", "reagent no.": 1, "log2 vehicle/camptothecin viability": -0.298, "viability with camptothecin (% of control)": 59.5}
{"gene": "KCNJ14", "reagent no.": 2, "log2 vehicle/camptothecin viability": -0.0518, "viability with camptothecin (% of control)": 69.9}
{"gene": "KCNJ14", "reagent no.": 3, "log2 vehicle/camptothecin viability": -0.0891, "viability with camptothecin (% of control)": 105}
{"gene": "KCNJ14", "reagent no.": 4, "log2 vehicle/camptothecin viability": -0.0535, "viability with camptothecin (% of control)": 106}
{"gene": "ACTL6B", "reagent no.": 1, "log2 vehicle/camptothecin viability": -0.472, "viability with camptothecin (% of control)": 93.9}
{"gene": "ACTL6B", "reagent no.": 2, "log2 vehicle/camptothecin viability": 0.0387, "viability with camptothecin (% of control)": 58.6}
{"gene": "ACTL6B", "reagent no.": 3, "log2 vehicle/camptothecin viability": -0.337, "viability with camptothecin (% of control)": 81.7}
{"gene": "MARK3", "reagent no.": 1, "log2 vehicle/camptothecin viability": -0.0785, "viability with camptothecin (% of control)": 80.1}
{"gene": "MARK3", "reagent no.": 2, "log2 vehicle/camptothecin viability": -0.179, "viability with camptothecin (% of control)": 50.6}
{"gene": "MARK3", "reagent no.": 3, "log2 vehicle/camptothecin viability": -0.138, "viability with camptothecin (% of control)": 99.6}
{"gene": "MARK3", "reagent no.": 4, "log2 vehicle/camptothecin viability": 0.917, "viability with camptothecin (% of control)": 27.4}
{"gene": "THPO", "reagent no.": 1, "log2 vehicle/camptothecin viability": 0.0776, "viability with camptothecin (% of control)": 82.7}
{"gene": "THPO", "reagent no.": 2, "log2 vehicle/camptothecin viability": 0.115, "viability with camptothecin (% of control)": 43.9}
{"gene": "THPO", "reagent no.": 3, "log2 vehicle/camptothecin viability": -0.433, "viability with camptothecin (% of control)": 93.5}
{"gene": "MAFF", "reagent no.": 1, "log2 vehicle/camptothecin viability": 1.25, "viability with camptothecin (% of control)": 7.57}
{"gene": "MAFF", "reagent no.": 2, "log2 vehicle/camptothecin viability": -0.167, "viability with camptothecin (% of control)": 86.4}
{"gene": "MAFF", "reagent no.": 3, "log2 vehicle/camptothecin viability": -0.0945, "viability with camptothecin (% of control)": 101}
{"gene": "GFUS", "reagent no.": 1, "log2 vehicle/camptothecin viability": -0.185, "viability with camptothecin (% of control)": 92}
{"gene": "GFUS", "reagent no.": 2, "log2 vehicle/camptothecin viability": -0.731, "viability with camptothecin (% of control)": 30.4}
{"gene": "GFUS", "reagent no.": 3, "log2 vehicle/camptothecin viability": -0.332, "viability with camptothecin (% of control)": 96.4}
{"gene": "GFUS", "reagent no.": 4, "log2 vehicle/camptothecin viability": -0.589, "viability with camptothecin (% of control)": 91.1}
{"gene": "DDX54", "reagent no.": 1, "log2 vehicle/camptothecin viability": -0.119, "viability with camptothecin (% of control)": 25.7}
{"gene": "DDX54", "reagent no.": 2, "log2 vehicle/camptothecin viability": -0.0739, "viability with camptothecin (% of control)": 53.1}
{"gene": "DDX54", "reagent no.": 3, "log2 vehicle/camptothecin viability": -0.348, "viability with camptothecin (% of control)": 38.8}
{"gene": "MDH1", "reagent no.": 1, "log2 vehicle/camptothecin viability": 0.0232, "viability with camptothecin (% of control)": 65.7}
{"gene": "MDH1", "reagent no.": 2, "log2 vehicle/camptothecin viability": -0.0959, "viability with camptothecin (% of control)": 105}
{"gene": "MDH1", "reagent no.": 3, "log2 vehicle/camptothecin viability": -0.473, "viability with camptothecin (% of control)": 60.9}
{"gene": "SDC1", "reagent no.": 1, "log2 vehicle/camptothecin viability": -0.446, "viability with camptothecin (% of control)": 49.6}
{"gene": "SDC1", "reagent no.": 2, "log2 vehicle/camptothecin viability": -0.306, "viability with camptothecin (% of control)": 73.2}
{"gene": "SDC1", "reagent no.": 3, "log2 vehicle/camptothecin viability": -0.668, "viability with camptothecin (% of control)": 60.5}
{"gene": "SDC1", "reagent no.": 4, "log2 vehicle/camptothecin viability": 0.0527, "viability with camptothecin (% of control)": 67.6}
{"gene": "PI4KB", "reagent no.": 1, "log2 vehicle/camptothecin viability": 0.436, "viability with camptothecin (% of control)": 37.1}
{"gene": "PI4KB", "reagent no.": 2, "log2 vehicle/camptothecin viability": -0.178, "viability with camptothecin (% of control)": 101}
{"gene": "PI4KB", "reagent no.": 3, "log2 vehicle/camptothecin viability": -0.18, "viability with camptothecin (% of control)": 74}
{"gene": "PI4KB", "reagent no.": 4, "log2 vehicle/camptothecin viability": -0.377, "viability with camptothecin (% of control)": 55.2}

Already shown: 3 of the entries above.
{"gene": "MAFF", "reagent no.": 2, "log2 vehicle/camptothecin viability": -0.167, "viability with camptothecin (% of control)": 86.4}
{"gene": "MAFF", "reagent no.": 3, "log2 vehicle/camptothecin viability": -0.0945, "viability with camptothecin (% of control)": 101}
{"gene": "GFUS", "reagent no.": 1, "log2 vehicle/camptothecin viability": -0.185, "viability with camptothecin (% of control)": 92}
